{"source": "the supplement of paper PMC7666118", "note": "This is one part of the list.", "data": [{"compound": "COc1ccc(Cn2ccc3ccc(C(=O)NO)cc32)cc1", "assay": "dose-dependent thermal stabilisation call (2D-TPP, DLPTP, 10% FDR) (binary (1 = stabilised)); higher = stabilised by the compound", "conditions": "system: HL-60 intact cells; concentration range 0.04-10 µM", "values": [{"target": "RRP15 (UniProt Q9Y3B9)", "dose-dependent thermal stabilisation call": "inactive: 0"}, {"target": "RCN2 (UniProt Q14257)", "dose-dependent thermal stabilisation call": "inactive: 0"}, {"target": "RPP14 (UniProt O95059)", "dose-dependent thermal stabilisation call": "inactive: 0"}, {"target": "RINL (UniProt Q6ZS11)", "dose-dependent thermal stabilisation call": "inactive: 0"}, {"target": "RPS4X (UniProt P62701)", "dose-dependent thermal stabilisation call": "inactive: 0"}, {"target": "RPLP2 (UniProt P05387)", "dose-dependent thermal stabilisation call": "inactive: 0"}, {"target": "RPS12 (UniProt P25398)", "dose-dependent thermal stabilisation call": "inactive: 0"}, {"target": "RDH13 (UniProt Q8NBN7)", "dose-dependent thermal stabilisation call": "inactive: 0"}, {"target": "RRAGD (UniProt Q9NQL2)", "dose-dependent thermal stabilisation call": "inactive: 0"}, {"target": "RDBP (UniProt P18615)", "dose-dependent thermal stabilisation call": "inactive: 0"}, {"target": "SAPS2 (UniProt O75170)", "dose-dependent thermal stabilisation call": "inactive: 0"}, {"target": "RRP1B (UniProt Q14684)", "dose-dependent thermal stabilisation call": "inactive: 0"}, {"target": "RPS21 (UniProt P63220)", "dose-dependent thermal stabilisation call": "active: 1"}, {"target": "REEP4 (UniProt Q9H6H4)", "dose-dependent thermal stabilisation call": "inactive: 0"}, {"target": "RPS15 (UniProt P62841)", "dose-dependent thermal stabilisation call": "inactive: 0"}, {"target": "RBMX (UniProt P38159)", "dose-dependent thermal stabilisation call": "inactive: 0"}, {"target": "RCE1 (UniProt Q9Y256)", "dose-dependent thermal stabilisation call": "inactive: 0"}, {"target": "RNPEP (UniProt Q9H4A4)", "dose-dependent thermal stabilisation call": "inactive: 0"}, {"target": "RPAIN (UniProt Q86UA6)", "dose-dependent thermal stabilisation call": "inactive: 0"}, {"target": "RNF114 (UniProt Q9Y508)", "dose-dependent thermal stabilisation call": "inactive: 0"}, {"target": "RPS23 (UniProt P62266)", "dose-dependent thermal stabilisation call": "inactive: 0"}, {"target": "RPL28 (UniProt P46779)", "dose-dependent thermal stabilisation call": "inactive: 0"}, {"target": "S100A4 (UniProt P26447)", "dose-dependent thermal stabilisation call": "inactive: 0"}, {"target": "RPS6 (UniProt P62753)", "dose-dependent thermal stabilisation call": "inactive: 0"}, {"target": "RPL4 (UniProt P36578)", "dose-dependent thermal stabilisation call": "inactive: 0"}, {"target": "RFXAP (UniProt O00287)", "dose-dependent thermal stabilisation call": "inactive: 0"}, {"target": "RIPK1 (UniProt Q13546)", "dose-dependent thermal stabilisation call": "inactive: 0"}, {"target": "RHOA (UniProt P61586)", "dose-dependent thermal stabilisation call": "inactive: 0"}, {"target": "RPS6KB2 (UniProt Q9UBS0)", "dose-dependent thermal stabilisation call": "inactive: 0"}, {"target": "RFC3 (UniProt P40938)", "dose-dependent thermal stabilisation call": "inactive: 0"}, {"target": "S1PR4 (UniProt O95977)", "dose-dependent thermal stabilisation call": "inactive: 0"}, {"target": "RPS11 (UniProt P62280)", "dose-dependent thermal stabilisation call": "inactive: 0"}, {"target": "RPS5 (UniProt P46782)", "dose-dependent thermal stabilisation call": "inactive: 0"}, {"target": "RPL11 (UniProt P62913)", "dose-dependent thermal stabilisation call": "inactive: 0"}, {"target": "RUVBL1 (UniProt Q9Y265)", "dose-dependent thermal stabilisation call": "inactive: 0"}, {"target": "SAMHD1 (UniProt Q9Y3Z3)", "dose-dependent thermal stabilisation call": "inactive: 0"}, {"target": "RNF34 (UniProt Q969K3)", "dose-dependent thermal stabilisation call": "inactive: 0"}]}]}
